AC50 data for 51 compounds are collected here from PubChem BioAssay AID1487 (National Center for Advancing Translational Sciences (NCATS), 2009).

This experiment is described as follows: qHTS Assay for Modulators of Lamin A Splicing. The conditions noted are these: HeLa LMNA splicing GFP/RFP minigene ratio, 48 h. A digest of the protocol:
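S3 HeLa stable clones carrying a lamin A-EGFP splicing minigene plus DsRed2 were seeded at 600 cells/well in Opti-MEM with 2% FBS, pin-dosed and incubated 48 h at 37°C. Acumen cytometry (488 nm) gave the GFP/RFP total-intensity ratio.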
On the technique in general: In qHTS, concentration-response curves come from the screen itself.

Setting [1] is: measured here: RFP viability control channel.
[2] abbreviates: measured here: GFP splicing reporter channel.

Where “and” joins values, the source holds several entries; their conditions need not be identical. Equal entries are not always repeated. Some of the results follow. The main result of the screen is listed elsewhere. These columns were measured beside it and carry no call. The list favours compounds with an active or inconclusive main result. Words in brackets tell the shape of the fitted curve; partial curves, single points and poor fits give uncertain potencies.

Take `CCOC(=O)C1=C(NC(=S)NC(=O)c2ccccc2)c2ccccc2CC1C(C)C` (centres undefined): the AC50 under setting [1] is 3.98 µM [rising, full curve].
Take `O=C(CSc1nnc(NC(=O)c2ccc3c(c2)OCO3)s1)NCc1ccco1`: the AC50 under setting [2] was 0.00316 µM [rising, full curve, poor fit].
As to `CCOc1ccc(-c2nc(C#N)c(N3CCN(Cc4ccccc4)CC3)o2)cc1`, under setting [1], the AC50 was 35.5 µM [rising, single point].
With `Cc1ccc(CNC(=O)/C=C/c2cccs2)cc1`, the AC50 under setting [2] was 11.2 µM [rising, partial curve] and the AC50 under setting [1] was 14.1 µM [rising, single point].
Take `Cc1ccc(C2CC(=O)NC(SCc3ccccc3)=C2C#N)cc1` (centres undefined): the AC50 under setting [1] was 15.8 µM [rising, single point].
As for `CCCS(=O)(=O)N1CCC(Cc2ccc(OC)cc2)(C(=O)OCC)CC1`, the AC50 under setting [1] was 0.00501 µM [falling, full curve, poor fit].
In the case of `CCn1c(CN2CCCCC2)nc2cc(NC(=O)COc3ccc(C(C)(C)C)cc3)ccc21`, the AC50 by setting is: under setting [2], 3.55 µM [falling, partial curve, poor fit]; under setting [1], 0.0355 µM [falling, full curve, poor fit].
Take `O=c1c(Cc2ccc(Cl)cc2Cl)c(O)ccn1Cc1ccc(Cl)cc1`: the AC50 under setting [1] was 17.8 µM [rising, single point].
On to `Cc1n[nH]c(C)c1S(=O)(=O)N1CCc2ccccc21`, for which the AC50 is 10 µM [falling, partial curve] under setting [2] and 10 µM [falling, partial curve] under setting [1].
Consider `Oc1c(CN2CCCCC2)cc(COCc2ccccc2)c2cccnc12`, for which the AC50 under setting [1] is 17.8 µM [rising, single point].
Take `O=C(COC(=O)c1ccccc1[N+](=O)[O-])c1ccc(C2CCCCC2)cc1`: the concentration at half-maximal activity (AC50) under setting [2] was 10 µM [falling, single point] and the AC50 under setting [1] was 20 µM [falling, partial curve, poor fit].
Turning to `Cc1ccc(S(=O)(=O)NCCSc2nnnn2-c2ccccc2)cc1`, under setting [1], the AC50 was 10 µM [rising, single point].
Take `CSCC[C@H](NC(=O)C(C)Oc1ccc(Cl)cc1)c1nc2ccccc2[nH]1` (some centres undefined): the AC50 under setting [1] is 35.5 µM [rising, single point].
For `CC(=O)N1CCN(C(=O)CC2OC(=O)c3ccccc32)CC1` (centres undefined), the AC50 runs as follows: under setting [2], 15.8 µM [falling, single point]; under setting [1], 25.1 µM [falling, single point].
Regarding `COC(=O)[C@@H]1[C@@H](C)N(CCc2cc(OC)c(OC)c(OC)c2)C(=O)N[C@H]1c1ccccc1`, under setting [1], the AC50 was 0.316 µM [falling, partial curve].
`C[C@H]1O[C@@H](O[C@H]2[C@@H](O)C[C@H](O[C@H]3[C@@H](O)C[C@H](O[C@H]4CC[C@@]5(C)[C@H](CC[C@@H]6[C@@H]5C[C@@H](O)[C@]5(C)[C@@H](C7=CC(=O)OC7)CC[C@]65O)C4)O[C@@H]3C)O[C@@H]2C)C[C@H](O)[C@@H]1O`: the AC50 under setting [2] was 15.8 µM [rising, single point]; the AC50 under setting [1] is 562 nM [rising, full curve] and 4.47 µM [rising, full curve, poor fit].
Consider `CCOc1ccc(-c2[nH]ncc2Oc2ccccc2OCC)c(O)c1`, for which the AC50 is, setting by setting: under setting [2], 31.6 µM [rising, single point]; under setting [1], 35.5 µM [rising, single point].
As for `CCn1c(C(=O)N2CCC(Cc3ccccc3)CC2)cc2sccc21`, the AC50 under setting [2] was 15.8 µM [rising, single point].
On to `Cn1c(=O)c2nc3ccccc3nc2n(C)c1=O`, for which the AC50 under setting [2] is 0.02 µM [falling, full curve, poor fit].
For the compound `COc1ccccc1N=C(C)C1=C(O)CSC1=O`, the AC50 is 3.55 µM [falling, single point] under setting [2] and 3.16 µM [falling, single point] under setting [1].
For `Cc1ccsc1/C=N/NC(=O)c1ccc(Cn2cc(Br)cn2)o1`, the AC50 reads like this: under setting [2], 11.2 µM [rising, partial curve]; under setting [1], 11.2 µM [rising, partial curve].
As for `C=CCOCCN(C)C1=NS(=O)(=O)c2ccccc21`, under setting [1], the AC50 was 0.794 µM [falling, full curve, poor fit].
`Cc1ccc(S(=O)(=O)/N=C(\N)Nc2nc(C)c3ccccc3n2)cc1`: under setting [1], the AC50 was 31.6 µM [rising, single point].
In the case of `Cc1cnc(CNc2ncncc2-c2c(C)noc2C)cn1`, the AC50 reads like this: under setting [2], 35.5 µM [falling, single point]; under setting [1], 35.5 µM [falling, single point].
For `CCOC(=O)c1c(NC(=O)CSc2nnc(-c3c[nH]c4ccccc34)n2CCOC)sc2c1CCCC2`, the half-maximal activity concentration (AC50) under setting [2] is 15.8 µM [rising, single point].
For `Cc1nn(-c2ccccc2)c2c1C(c1ccc([N+](=O)[O-])cc1)N1C(=N2)C(=O)Nc2ccccc21` (centres undefined), the AC50 under setting [1] was 15.8 µM [rising, partial curve].
Regarding `Cc1oc(-c2cccc(Br)c2)nc1Cn1c(SCc2cccc(F)c2)nc2cccnc21`, the AC50 under setting [1] is 11.2 µM [rising, single point].
For the compound `COc1cccc(C(C)NC(=S)NCc2ccc(Cl)cc2)c1` (centres undefined), the AC50 under setting [1] is 0.282 µM [rising, partial curve, poor fit].
For the compound `CN(C)CCNC(=O)/C(=C/c1ccc(-c2ccc(Cl)cc2Cl)o1)NC(=O)c1ccccc1`, the AC50 runs as follows: under setting [2], 5.01 µM [rising, single point]; under setting [1], 35.5 µM [falling, single point].
`Cc1nn(Cc2ccccc2)c(Cl)c1C(=O)OCc1nnc(-c2ccc(Cl)cc2)o1`: the AC50 is 15.8 µM [rising, single point] under setting [2] and 15.8 µM [rising, single point] under setting [1].
Take `COc1cc2[nH]c(=S)nc(NC3CCCC3)c2cc1OC`: the AC50 under setting [1] was 4.47 µM [rising, single point].
In the case of `CSCCC(NS(=O)(=O)c1ccc2ccccc2c1)C(=O)OCC(=O)c1ccc(C(C)C)cc1` (centres undefined), the AC50 runs as follows: under setting [2], 35.5 µM [rising, single point]; under setting [1], 35.5 µM [rising, single point].
For the compound `COc1ccc(C)cc1NC(=O)CSc1nnc(COc2ccc(C)cc2)n1Cc1ccco1`, the AC50 by setting is: under setting [2], 11.2 µM [rising, single point]; under setting [1], 14.1 µM [rising, partial curve].
As for `O=C(CCCC(=O)OCC1CCCO1)OCC1CCCO1` (centres undefined), the AC50 under setting [2] was 31.6 µM [rising, partial curve, poor fit].
With `CSCCOC(=O)C1=C(C)NC(=O)CC1c1ccccc1Cl` (centres undefined), the AC50 was 10 µM [rising, partial curve] under setting [2] and 14.1 µM [rising, partial curve] under setting [1].
In the case of `CCCCc1c(C)c2ccc(OC)c(/C(C)=N\O)c2oc1=O`, under setting [1], the AC50 was 31.6 µM [rising, single point].
As to `Cc1[nH]nc(SCC(=O)NCc2ccc(F)cc2)c1[N+](=O)[O-]`, the AC50 is 1.26 µM [falling, single point] under setting [2] and 4.47 µM [rising, single point] under setting [1].
As for `O=C(CCc1ccc(S(=O)(=O)NCCc2ccccc2)cc1)N1CCN(Cc2ccc3c(c2)OCO3)CC1`, the AC50 reads like this: under setting [2], 17.8 µM [rising, single point]; under setting [1], 14.1 µM [rising, single point].
Take `O=C(NCc1nc(-c2ccccc2)no1)c1ccc(Br)o1`: the AC50 under setting [1] is 10 µM [rising, partial curve].
As for `O=C(NCc1ccco1)c1cc(S(=O)(=O)N2CCOCC2)c(Cl)cc1Cl`, the AC50 under setting [1] was 35.5 µM [rising, single point].
With `CCCCCNC(=O)C1CCC(Cn2c(=O)c3sccc3n(CC)c2=O)CC1` (centres undefined), under setting [2], the AC50 is 10 µM [falling, partial curve, poor fit].
As for `O=C(NCc1ccc2[nH]c3c(c2c1)CCCC3)c1ccc(S(=O)(=O)N2CCCCC2)cc1`, the AC50 under setting [2] is 2.82 µM [rising, partial curve, poor fit] and the AC50 under setting [1] is 14.1 µM [rising, partial curve, poor fit].
Regarding `COc1ccc(N2C(=O)CC(Sc3nnnn3-c3ccc(F)cc3)C2=O)cc1` (centres undefined), the half-maximal activity concentration (AC50) is, setting by setting: under setting [2], 2.51 µM [falling, partial curve, poor fit]; under setting [1], 0.708 µM [rising, single point].
On to `Cc1ccc(NC(=O)C2CCCN(C(=O)c3ccc(Cl)cc3)C2)cc1S(=O)(=O)N1CCOCC1` (centres undefined), for which the AC50 is 6.31 µM [falling, partial curve, poor fit] under setting [2] and 2.82 µM [falling, partial curve, poor fit] under setting [1].
Take `CCCCNC(=O)CC1N=C2c3ccccc3N=C(SCC(=O)Nc3ccccc3OC)N2C1=O` (centres undefined): the AC50 was 14.1 µM [rising, partial curve, poor fit] under setting [2] and 14.1 µM [rising, partial curve] under setting [1].
Turning to `O=C(CC1C(=O)NCCN1Cc1ccoc1)NCCc1ccc(Cl)cc1` (centres undefined), the AC50 under setting [2] was 0.0251 µM [rising, full curve, poor fit].
Turning to `CC(OC(=O)C(C)N1C(=O)C2C3C=CC(C4CC34)C2C1=O)C(=O)c1ccccc1` (centres undefined), the AC50 under setting [1] is 15.8 µM [rising, single point].
Take `NC(N)=NC(N)=Nc1cccc(Cl)c1`: the AC50 was 0.01 µM [falling, full curve, poor fit] under setting [2] and 6.31 µM [falling, single point] under setting [1].
Take `CCC(CC)C(=O)N1CCc2cc(OC)c(OC)cc2C1COc1ccc(F)cc1` (centres undefined): the AC50 under setting [2] was 17.8 µM [falling, partial curve].
Regarding `CC1(C)CC(CCN(Cc2ccccc2)C(=O)c2ccco2)(c2ccccc2)CCO1` (centres undefined), the half-maximal activity concentration (AC50) under setting [1] was 12.6 µM [rising, partial curve, poor fit].
On to `Cc1nc(NC(=O)c2ccccc2)sc1-c1csc(Nc2cccc(F)c2)n1`, for which the AC50 was 15.8 µM [falling, single point] under setting [2] and 15.8 µM [falling, single point] under setting [1].

The AC50 is the midpoint of the concentration-response curve, whichever way the signal moves.
